{"source": "patent US11730707B2", "about": "“Compounds for treating von Hippel-Lindau disease” (CONSEJO SUPERIOR DE INVESTIGACIONES CIENTÍFICAS, priority 2017, dated 2023)", "key": {"[1]": {"tested_on": "hemangioblastoma primary cell cultures from VHL patients", "details": "100 μM, 72 hours; primary cell culture HB11cib (FIG. 1), vs untreated cells", "experimental": "HeLa 9XHRE cells were stably transfected with a HREluc reporter carrying nine copies in tandem of the hypoxia responsive element (HRE) followed by luciferase gene, and were cultured in DMEM (Dulbecco's Modified Eagle Medium, Gibco, Grand Island, N.Y., USA) supplemented with 10% fetal bovine serum (FBS; Gibco). To induce hypoxic conditions, HeLa cells were cultured with 100 μM desferrioxamine (DFO) (chemical hypoxia). […] Primary cultures of CNS hemangioblastoma were obtained according to the previously described by Albiñana et al., Orphanet J Rare Diseases, 2015, 10: 118.\nThe viability of hemangioblastoma and HeLa 9XHRE cells was measured with a CellTiter-Glo Luminescent Cell Viability Assay (Promega, Madison, Wis., USA). This is a homogeneous method to determine the number of viable cells in culture based on quantitation of the ATP present, which signals the presence of metabolically active cells. […] After treatment, plates were equilibrated to room temperature for 30 min before the addition of 100 μl of Cell Titer-Glo reagent (Lysis buffer, Ultra-Glo Recombinant Luciferase, Luciferine and Mg2+). Luminescence was measured using a Glomax Multidetection System (Promega)."}, "[2]": {"tested_on": "hemangioblastoma cell primary culture (HB18, HB4)", "assay": "Remaining cells in culture after treatment (FIG. 2)", "assay_type": "cell-based, human", "details": "72 hours; propranolol 100 μM; ICI 118,551 50 μM (HB 18) and 100 μM (HB 4)"}}, "note": "Several values for one entry are separate records, joined by “and”; a condition that tells them apart may be missing. Equal entries are not always repeated. Some of these results come from one statement about several compounds together.", "data": [{"smiles": "Cc1ccc(OCC(O)C(C)NC(C)C)c2c1CCC2", "note": "[ICI 118,551, erythro-D,L-1(methylinden-4-yloxy)-3-isopropylaminobutan-2-ol]", "values": [{"measurement": "decrease in viability", "setting": "[1]", "value": "55-60% and 40%-50%"}, {"measurement": "reduction in the number of cells with respect to untreated", "setting": "[2]", "value": "30-40%"}]}]}
